Patent EP4624492A1
Changes are numbered by the printed parent chain. No constants are given. Whether binding was seen depends on the method and setting. A result given as binding can be weak or reduced; the word gives no strength.

B1: 559E1B10 (antibody, V domains shown)
VH: KVQLQQSGPVLVKPGASVKMSCKASGYTFTDYYVNWMKQNYGKSPEWIGVINPHNGDTRYNQKFKGKATLTVDKSSSTANMELTSLTSGDSAVYYCASWLRRGYYFDSWGQGTTLTVSS
VL: DIVMTQSPATLSVTPGDRVSLSCRASQSISDYLHWYQQKSHESPRLLLKYVSQSISGIPSRFSGSGSGSDFTLTINSVEPEDVGVYYCQNGHSFPLTFGAGTKLELK
B2: 563E10E12 (antibody, V domains shown)
VH: EVQLIESGGGLVQPKGSLKLSCAASGFNFNAYAMNWVRQAPGKGLEWVARIRSKSNNFATYYADSVTDRFTISRDDSESMLYLQMNNLKTEDTAMYYCVRHGRRDLLYSMDFWGQGTSVTVSS
VL: DVVMTQAAFSNPVTLGTSTSISCRSSKSLLHSNGITYLFWYLQKPGQSPQLLIYQMSNLASGVPDRFSGSGSGTDFTLRISRVEAEDVGVYYCAQSLELPLTFGGGTKLEIK
B3: 589D7C7 (antibody, V domains shown)
VH: B2 VH with I5V, T67K, L81V, Q84E
VL: B2 VL with V2I, T19A, G89A
B4: 569D11B5 (antibody, V domains shown)
VH: B2 VH with N57D, T67K, D68G, S79N, Y82F
VL: B2 VL with V2I, T19A
B5: 27B9-1G3 (antibody, V domains shown)
VH: EIQLQQSGPELEKPGASVKISCKASGYSFTGYNMNWVKKSNGKSLEWIGNIDPYYGGTNYNQKFKGKATLTVDKSSSTAYMQLKSLTSEDSAVYYCARETWFITTGVIKKGFYFDYWGQGTTLTVSS
VL: EIVLTQSPTTMAASPGEKITLACSASSIISSNYLHWYQQKPGFSPKLLIYRTSSLASGVPARFSGSGSGTSYSLTIGTMEAEDVATYYCQQGSSIPRTFGGGTKLEIK
B6: 27B9-1G3_hIgG1 (antibody, V domains shown)
VH: B5 VH
VL: EIVLTQSPTTMAASPGEKITLACSASSIISSNYLHWYQQKPGFSPKLLIYRTSSLASGVPARFSGSGSGTSYSLTIGTMEAEDVATYYCQQGSSIPRTFGGGTKLEIKR

target: cynomolgus CCR8 (cynomolgus monkey); assay: flow cytometry on 293T-cynoCCR8 cells

binding, binds:
B1
B2
B3
B4
B5
B6

target: cynomolgus CCR8 (cynomolgus monkey); assay: flow cytometry, hybridoma supernatant on CHOK1-cynoCCR8 cells

binding, binds:
B1
B2
B3
B4
B5
